The assay in a line: qHTS Assay for Lipid Storage Modulators in Drosophila S3 Cells.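 For cell number change: cells counted by Cell Tracker Red CMTPX staining in the red channel.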 Particulars: BODIPY lipid droplet fluorescence, 18-24 h; for cell number change: measured here: cell count max response, cells fed with added oleic acid. Summed up:
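Drosophila S3 cells got compounds at several concentrations plus oleic acid (400 uM solution). Laser-scanning cytometry with 488 nm excitation read lipid droplets at 500-530 nm and cells at 575-640 nm. Percent activity was relative to 20 uM Triacsin C.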

Setting [1] is: measured here: lipid fluorescence (Fed channel) AC50, cells fed with added oleic acid.
Where [2] appears, read: measured here: cell number channel AC50, cells fed with added oleic acid.

The list shows a part of the results. Shown are side measurements of this screen, not its main read-out; they come without a call. Compounds called inactive in the main read-out are mostly missing here. The note in brackets gives the kind of curve behind each potency; many fits are weak.

Turning to `O=C(COc1ccc2ccc(=O)oc2c1)NCCCN1CCCC1=O`, the cell number change was -21.2%.
`CNC(=O)CN(c1ccc2c(c1)OCCO2)S(C)(=O)=O`: the cell number change was -15%. Further, under setting [1], the AC50 was 16.4 µM [falling, partial curve].
`CCCN1CCN(C(=O)Cn2cnc3sc(C)c(S(=O)(=O)N4CCC(C)CC4)c3c2=O)CC1`: the cell number change is 25%.
Turning to `COc1ccc(OC)c(C2C(C#N)=C(N)Oc3cc(C)n(Cc4ccccn4)c(=O)c32)c1` (stereo unspecified), the cell number change was -12.4%.
As for `CCC(C)[C@H](NC(=O)NCc1ccc(Cl)cc1)C(=O)OC` (stereo partly specified), the cell number change stood at 16.3%. Moreover, the AC50 under setting [1] was 3.26 µM [falling, partial curve, poor fit].
As for `CCc1ccc(S(=O)(=O)Nc2c(C)nc3nc[nH]n3c2=O)cc1`, the cell number change was found to be 5.86%.
`CCOc1ccc(C(=O)CN2C(=O)NC3(CCCCCC3)C2=O)cc1`: the cell number change is -57.4%. In addition, the AC50 under setting [2] is 32.6 µM [falling, single point].
Take `COC(=O)C1=CN(Cc2ccc(OC)c(OC)c2)C=C(C(=O)OC)C1c1ccc(O)cc1`: the cell number change was -37.3%. Besides, the AC50 under setting [2] was 20.6 µM [falling, single point].
Turning to `O=C(c1ccco1)N1CCN(c2ncnc3c2[nH]c2ccc(Cl)cc23)CC1`, the cell number change is -7.02%. The AC50 under setting [1] was 0.259 µM [rising, full curve, poor fit].
Consider `O=C(OCc1nnc(-c2ccccc2)o1)c1ccco1`, for which the cell number change was -0.814%.
On the same count and under the same terms, in the case of `CC(C)(C)c1ccc(S(=O)(=O)NCC(=O)N2CCN(C(=O)c3ccco3)CC2)cc1` it was -12.4%.
For the compound `O=C(O)C1C2C=CC(C2)C1C(=O)Nc1ccc(Cl)c(Cl)c1` (stereo unspecified), the cell number change was 1.05%.
The same measure, in the same setting: in the case of `O=S(=O)(NCC1CCCO1)c1ccc2oc3ccc(S(=O)(=O)NCC4CCCO4)cc3c2c1` (stereo unspecified) it was 13.2%.
Take `COc1ccc(-n2c(SCc3ccc([N+](=O)[O-])cc3)nnc2-c2ccc(C)cc2)cc1`: the cell number change is -8.14%. Under setting [1], the concentration at half-maximal activity (AC50) is 23.1 µM [rising, single point].
As for `Cn1nc(C(=O)Oc2cc(=O)n(C)c3ccccc23)c2ccccc2c1=O`, the AC50 under setting [2] was 6.51 µM [falling, single point] and the AC50 under setting [1] was 6.51 µM [falling, single point].
On to `NC(=O)c1ccccc1NC(=O)Cc1cccs1`, for which the cell number change was -5.56%. Moreover, the AC50 under setting [1] was 18.4 µM [rising, single point].
Consider `O=C(O)c1cccc(-n2cccc2/C=C\[N+](=O)[O-])c1`, for which the cell number change is -24.2%.
Consider `CCOC(=O)c1cnc2ccc(OCC)cc2c1N1CCN(c2ccccc2)CC1`, for which the cell number change is -0.566%. Also, under setting [2], the AC50 was 1.16 µM [rising, full curve, poor fit]. The AC50 under setting [1] is 1.84 µM [rising, partial curve].
In the case of `O=C(COC(=O)c1cccs1)Nc1nnc(-c2ccccc2)o1`, the cell number change is 11.8%. For the same compound, the AC50 under setting [1] is 1.64 µM [rising, partial curve].
`Cc1ccnc(NC(=O)c2cc([N+](=O)[O-])cc([N+](=O)[O-])c2)c1`: the cell number change stood at 9.34%.
The same measure, in the same setting: in the case of `CCC1(c2ccc(F)cc2)NC(=O)N(CC(=O)N2CCN(C(=O)c3cccs3)CC2)C1=O` (stereo unspecified) it was -12.5%.
As for `COc1ccc(CCCc2nnc(SCC(=O)Nc3cc(C)c(C)cc3Br)o2)cc1`, the cell number change came out at 84.5%. For the same compound, under setting [2], the AC50 was 5.8 µM [rising, full curve].
As to `Cc1ccccc1/C=C1\C(=O)Nc2ccc(F)cc21`, the cell number change is -24.1%.
Consider `CCOC(=O)[C@H]1[C@H]2COc3ccc(OC)cc3[C@@H]2N2C(=O)c3cc(C)ccc3NC(=O)[C@@]12C`, for which, under setting [1], the AC50 was 0.0731 µM [falling, full curve, poor fit].
As for `COc1ccc([C@H]2CC(=O)C=C(c3ccccc3)C2)cc1OC`, the cell number change was -24.3%.
In the case of `CCC(C)c1ccc(NC(=S)NC2CCN(Cc3ccccc3)CC2)cc1` (stereo unspecified), the cell number change was -23.5%.
For the compound `C=CCOc1cccc(/C=N/NC(=O)C(OC)c2ccccc2)c1` (stereo unspecified), the cell number change turned out to be 13.9%. The concentration at half-maximal activity (AC50) under setting [2] was 6.51 µM [rising, single point]. Under setting [1], the AC50 was 3.26 µM [rising, full curve].
For `O=C(N/N=C1\C2CN3CCN(C2)CC1(c1ccccc1)C3)Nc1ccccc1`, the cell number change is -13.5%. Under setting [1], the AC50 is 0.651 µM [rising, full curve].
Regarding `CN(C)c1ccc(/C=N/NC2=NS(=O)(=O)c3ccccc32)cc1`, under setting [2], the AC50 is 6.51 µM [rising, single point].
Turning to `COc1ccc2[nH]c3c(=O)n(CCc4ccccc4)cnc3c2c1`, the cell number change stood at 32.3%. The AC50 under setting [2] is 1.46 µM [rising, full curve]. Besides, under setting [1], the AC50 is 7.31 µM [rising, partial curve].
For the compound `COC(=O)c1c(NC(=O)CSc2nnc(-c3cccnc3)n2Cc2ccco2)sc(C)c1C`, the AC50 under setting [2] was 0.58 µM [rising, single point].
Take `O=C1C=C(c2cc3ccccc3s2)C[C@@H](c2ccc3c(c2)OCO3)C1`: the cell number change amounted to 10.6%. Also, the AC50 under setting [1] is 0.116 µM [rising, full curve, poor fit].
In the case of `Cc1cc(C(=O)CSc2nnc(Nc3ccccc3)s2)c(C)n1CC1CCCO1` (stereo unspecified), the cell number change was -40.4%. The AC50 under setting [2] was 16.4 µM [falling, partial curve, poor fit]. The AC50 under setting [1] is 29.1 µM [falling, single point].
Regarding `c1ccc2c(c1)[nH]c1c(N3CCC4(CC3)OCCO4)ncnc12`, the cell number change was found to be 9.28%. The AC50 under setting [1] is 5.17 µM [rising, single point].
Consider `O=C(COC(=O)CCNS(=O)(=O)c1ccc(Cl)cc1)NCc1ccco1`, for which the cell number change was -0.403%. Also, the AC50 under setting [1] was 0.0184 µM [falling, full curve, poor fit].
In the case of `COc1ccc(/C=C(\C#N)C(=O)NC(C)c2ccccc2)cc1O` (stereo unspecified), the cell number change was 10.4%. The AC50 under setting [1] was 0.58 µM [rising, single point].
As for `Cc1ccc(S(=O)(=O)N2CCN(C(=O)COC(=O)/C=C/c3ccccc3)CC2)c(C)c1`, the cell number change worked out at 13.4%. Besides, the AC50 under setting [1] was 9.2 µM [rising, partial curve].
Regarding `COC(=O)c1cn(-c2ccc(Cl)cc2)c(=O)c2ccccc12`, the cell number change is -14.3%. Under setting [1], the AC50 is 0.58 µM [falling, single point].
Take `CCOC(=O)C1CCN(C(=O)c2ccc(Cl)c(S(=O)(=O)N3CCCC3)c2)CC1`: the cell number change is -0.867%. Under setting [1], the AC50 is 29.1 µM [rising, single point].
Consider `Cc1nc(CSc2nc3[nH]ncc3c(=O)n2-c2ccccc2)cs1`, for which the cell number change worked out at 7.28%. Moreover, the AC50 under setting [1] was 4.61 µM [rising, partial curve, poor fit].
Take `COc1ccc(OC)c(NC(=O)CSc2nc3nc(C)cc(C)n3n2)c1`: the cell number change stood at 24.4%. Besides, under setting [1], the AC50 was 0.146 µM [rising, full curve, poor fit].
For the compound `COc1cccc(Oc2ccc(N)cc2)c1`, the AC50 reads like this: under setting [2], 0.00461 µM [falling, full curve, poor fit]; under setting [1], 6.51 µM [falling, single point].

The record behind these values is PubChem BioAssay AID2685 (National Center for Advancing Translational Sciences (NCATS), 2010).
